Test results reported in the supplement of paper PMC3682954.
“And” between values parts separate entries of the source, which are not always exact repeats. Identical values can stand only once. Counter-ions that a name gives are not always drawn. ± gives the standard deviation of the averaged measurements. The list shows a part of the results. Single values are uncertain, as repeats are few or missing.

Tested on: RAW 264.7
Experiment: HMGB1-induced TNF-alpha production relative to HMGB1-stimulated control; higher = more TNF-alpha secretion (less inhibition)
Settings: stimulus: HMGB1 5 ug/ml, 18 h
[1] = compound concentration: 1 ug/ml

SMILES	HMGB1-induced TNF-alpha production [1] [%]	HMGB1-induced TNF-alpha production (compound concentration: 3 uM)
CO[C@H]1/C=C/O[C@@]2(C)Oc3c(C)c(O)c4c(O)c(c(/C=N/N5CCN(C)CC5)c(O)c4c3C2=O)NC(=O)/C(C)=C\C=C\[C@H](C)[C@H](O)[C@@H](C)[C@@H](O)[C@@H](C)[C@H](OC(C)=O)[C@@H]1C [Rifampicin]	58.7	71.9 ± 16%
CC(C)NCC(O)c1ccc(O)c(O)c1 (racemic) [(±)-Isoproterenol hydrochloride]		53.3%
CC(C)NCC(O)c1ccc(O)c(O)c1 (racemic) [Isoproterenol (Rac)]		80%
CC(C(=O)O)c1ccc(CC2CCCC2=O)cc1 (stereo not drawn)		119%
CC(C(=O)O)c1ccc(CC2CCCC2=O)cc1 (stereo not drawn) [loxoprofen]		110%
CC[C@H]1OC(=O)[C@H](C)[C@@H](O[C@H]2C[C@@](C)(OC)[C@@H](O)[C@H](C)O2)[C@H](C)[C@@H](O[C@@H]2O[C@H](C)C[C@H](N(C)C)[C@H]2O)[C@](C)(O)C[C@@H](C)C(=O)[C@H](C)[C@@H](O)[C@]1(C)O [(-)-Erythromycin hydrate]	56.9	
CC[C@H]1OC(=O)[C@H](C)[C@@H](O[C@H]2C[C@@](C)(OC)[C@@H](O)[C@H](C)O2)[C@H](C)[C@@H](O[C@@H]2O[C@H](C)C[C@H](N(C)C)[C@H]2O)[C@](C)(O)C[C@@H](C)C(=O)[C@H](C)[C@@H](O)[C@]1(C)O [Erythromycin]		100%
CC[C@H]1OC(=O)[C@H](C)[C@@H](O[C@H]2C[C@@](C)(OC)[C@@H](O)[C@H](C)O2)[C@H](C)[C@@H](O[C@@H]2O[C@H](C)C[C@H](N(C)C)[C@H]2O)[C@](C)(O)C[C@@H](C)C(=O)[C@H](C)[C@@H](O)[C@]1(C)O		74.9% and 76.7%
CC1=C(/C=C/C(C)=C/C=C/C(C)=C/C=C/C=C(C)/C=C/C=C(C)/C=C/C2=C(C)CCCC2(C)C)C(C)(C)CCC1 [beta-CAROTENE]		104%
c1ccc(CC2=NCCN2)cc1 [Tolazoline hydrochloride]		44%
c1ccc(CC2=NCCN2)cc1		95.3%
NCCCCC(=O)O [5-Aminovaleric acid hydrochloride]		73.3%
CC(C)(Oc1ccc(CCNC(=O)c2ccc(Cl)cc2)cc1)C(=O)O		81.1%
CC(C)(Oc1ccc(CCNC(=O)c2ccc(Cl)cc2)cc1)C(=O)O [Bezafibrate]		74 ± 9.5%
OCCN1CCN(CCCN2c3ccccc3Sc3ccc(C(F)(F)F)cc32)CC1 [Fluphenazine dihydrochloride]		80.2 ± 12%
OCCN1CCN(CCCN2c3ccccc3Sc3ccc(C(F)(F)F)cc32)CC1		91 ± 9.4%
OCCN1CCN(CCCN2c3ccccc3Sc3ccc(C(F)(F)F)cc32)CC1 [Fluphenazine]		98.7%
Clc1ccc2c(c1)C(N1CCNCC1)=Nc1ccccc1O2		82.2%
Clc1ccc2c(c1)C(N1CCNCC1)=Nc1ccccc1O2 [Amoxapine]		76.1 ± 6.3%
CC(C)[C@@H](C)/C=C/[C@@H](C)[C@H]1CC[C@H]2C3=CC=C4C[C@@H](O)CC[C@]4(C)[C@H]3CC[C@]12C [Ergosterol]	68.5	
O=C1c2ccccc2C(=O)C1c1ccccc1 [Phenindione]		75%

SMILES	HMGB1-induced TNF-alpha production [1] [%]	HMGB1-induced TNF-alpha production (compound concentration: 3 uM)
O=C1c2ccccc2C(=O)C1c1ccccc1		93.9%
O=C(O)CCc1nc(-c2ccccc2)c(-c2ccccc2)o1		98.4 ± 5.2%
O=C(O)CCc1nc(-c2ccccc2)c(-c2ccccc2)o1 [Oxaprozin]		117 ± 35%
Oc1c(Br)cc(Br)c2cccnc12		133%
CCC(=O)O[C@H]1CC[C@H]2[C@@H]3CCc4cc(O)ccc4[C@H]3CC[C@]12C		101%
COc1ccc(CC(C)NCC(O)c2ccc(O)c(NC=O)c2)cc1 (stereo not drawn) [Formoterol fumarate]		89.8%
COc1ccc(CC(C)NCC(O)c2ccc(O)c(NC=O)c2)cc1 (stereo not drawn) [Formoterol]		66.9%
COc1ccc(CC(C)NCC(O)c2ccc(O)c(NC=O)c2)cc1 (stereo not drawn)		70.5%
CC(C)C[C@H](NC(=O)[C@H](Cc1ccccc1)NC(=O)c1cnccn1)B(O)O [Bortezomib]		8%
O=C(OCCN1CCOCC1)C1(c2ccccc2)CCCCC1		106%
O=C1C(c2c(O)[nH]c3ccccc23)=Nc2ccccc21		100%
CCCCN1CCC(n2c(=O)[nH]c3ccccc32)CC1 [NS 521 oxalate]		123%
NC(=O)c1ccccc1O		93.3%
CCOC(=O)N1CCC(=C2c3ccc(Cl)cc3CCc3cccnc32)CC1		93.8 ± 18%
CCOC(=O)N1CCC(=C2c3ccc(Cl)cc3CCc3cccnc32)CC1 [Loratadine]		98.6 ± 7.9%
Nc1nc(F)nc2c1ncn2[C@@H]1O[C@H](COP(=O)(O)O)[C@@H](O)[C@@H]1O		105.2 ± 1%
O=C1/C(=C/c2cccs2)CC/C1=C\c1cccs1		99.3%
COCCCC/C(=N\OCCN)c1ccc(C(F)(F)F)cc1 [Fluvoxamine]		104%
COCCCC/C(=N\OCCN)c1ccc(C(F)(F)F)cc1 [Fluvoxamine maleate]		82.7 ± 17%
COC(=O)[C@H](c1ccccc1Cl)N1CCc2sccc2C1		73.8%
COC(=O)[C@H](c1ccccc1Cl)N1CCc2sccc2C1 [Clopidogrel]		64.8%
